Structures can show the parent of a compound that is named as a salt. The list shows a part of the results. Hit calls seldom repeat between salt and free forms of one compound.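 Kinases, fused to nanoluciferase, were expressed in K562 cells; luminescence was measured every 4 h from 2 to 18 h as percent of control (DMSO = 100%, positive control = 0%). A time point is decreased if signal falls significantly (2 sigma). Hits were called by the authors by a rule that is not shown; the count of time points alone does not decide it.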

Sequences of proteins named here, by UniProt entry; tags and fusion partners are left off.
UniProt Q9NYA1, whole entry: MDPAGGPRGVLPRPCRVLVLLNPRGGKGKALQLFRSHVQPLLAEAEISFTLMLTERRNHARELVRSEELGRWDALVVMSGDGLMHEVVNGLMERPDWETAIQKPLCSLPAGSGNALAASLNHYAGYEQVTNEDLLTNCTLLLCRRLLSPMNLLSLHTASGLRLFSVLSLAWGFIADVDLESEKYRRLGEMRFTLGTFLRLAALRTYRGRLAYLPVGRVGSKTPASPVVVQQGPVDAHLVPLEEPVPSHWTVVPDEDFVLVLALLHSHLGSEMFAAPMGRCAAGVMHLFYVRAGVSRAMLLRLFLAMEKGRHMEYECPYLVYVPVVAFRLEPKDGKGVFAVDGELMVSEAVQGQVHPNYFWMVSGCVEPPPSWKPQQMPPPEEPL

Data on 33 molecules can be found in the supplement of paper PMC12823440, “Inhibitors supercharge kinase turnover through native proteolytic circuits” (Nature, 2025).

For the experiment, the target named is SPHK1 (UniProt Q9NYA1). Kind of experiment: number of time points (of 5) at which kinase-Nluc abundance scored as decreased, DMSO-normalised (count); higher = more persistent destabilization. The conditions noted are these: K562; 2-18 h.
Regarding `C[C@@H]1COCCN1c1nc(-c2cnc(N)cc2C(F)F)nc(N2[C@H](C)COC[C@@H]2C)n1` (2.5 µM), the “number of time points” value worked out at 0.

For `O=C(O)c1cc(=O)c2c(OCC(O)COc3cccc4oc(C(=O)O)cc(=O)c34)cccc2o1` [Cromolyn (sodium)] (10 µM), the “number of time points” value came out at 0. For `CCc1ccc(OCC(=O)Nc2ccc(F)c([N+](=O)[O-])c2)cc1` (10 µM), the “number of time points” value was found to be 0. The same measure for `CC(C)S(=O)(=O)c1ccc2nccc(Nc3ccc4scnc4c3)c2c1` (10 µM): 0; for `CN1CC[C@@H](c2c(O)cc(O)c3c(=O)cc(-c4ccc(C(F)(F)F)cc4Cl)oc23)[C@@H]1CO` [Voruciclib (hydrochloride)] (10 µM): 0. Turning to `CC(C)=CC(=O)O[C@H]1Cc2cc3ccc(=O)oc3cc2OC1(C)C` [Decursin] (10 µM), the “number of time points” value came out at 0.

For the molecule `CC(C)C[C@@H](C(=O)Nc1ccn(C[C@@H](O)CO)n1)N1CC(Oc2ccccc2Cl)=CC1=O` [Dorzagliatin] (10 µM), the “number of time points” value was 0. As for `CC(C)N1CCN(c2ccc(Nc3ncc4cc5n(c4n3)C3(CCCCC3)CNC5=O)nc2)CC1` [Lerociclib (dihydrochloride)] (2 µM), the figure is 0. Turning to `CCCCCCCCCCCCCCCCOP(=O)([O-])OCC[N+](C)(C)C` [Miltefosine] (10 µM), the “number of time points” value was determined as 0.

Turning to `COCCNc1cc(NC(=O)N2CCCc3cc(CN4CCN(C)CC4=O)c(C=O)nc32)ncc1C#N` [Roblitinib] (10 µM), the “number of time points” value is 0.

`Cc1ccc(NC(=O)c2ccc(CN(CCN(C)C)C(=O)c3cccnc3)cc2)cc1Nc1nccc(-c2cccnc2)n1` [PDGFRα kinase inhibitor 1] (10 µM): the “number of time points” value turned out to be 0. On to `c1ccc(-c2nc(=NCCN3CCOCC3)sn2-c2ccccc2)cc1` [VP3.15 (dihydrobromide)] (10 µM), for which the “number of time points” value stood at 0. Regarding `O=C1NC(=Nc2c(Cl)cccc2Cl)S/C1=C\c1ccc2nccnc2c1` (2.5 µM), the “number of time points” value came out at 0. Turning to `Cc1cc(-c2ccnc(Nc3cnn(C)c3)n2)ccc1CNC(=O)N1CC(OC(C)C)C1` (10 µM), the “number of time points” value came to 0. Take `CN(C)S(=O)(=O)c1ccc2c(c1)/C(=C/c1cc3c([nH]1)CCCC3)C(=O)N2` (2.5 µM): the “number of time points” value stood at 2. As for `Cc1cnc(NC2CCOCC2)nc1-n1cnc(C(=O)N[C@H](CN)c2cc(F)cc(Cl)c2)c1` (10 µM), the “number of time points” value worked out at 0. In the case of `N#CC(c1ccnc(OCc2ccc(CN3CCOCC3)cc2)n1)c1nc2ccccc2s1` (stereo not drawn) [Bentamapimod] (2.5 µM), the “number of time points” value worked out at 0. The same measure for `Cc1c(-c2ccc(C(N)=O)c3[nH]c4cc(C(C)(C)O)ccc4c23)cccc1-n1cnc2ccccc2c1=O` (2.5 µM): 0; for `CN(C)c1nc2c(Br)c(Br)c(Br)c(Br)c2[nH]1` (10 µM): 0. The same measure for `Nc1ncnc2c1c(-c1ccc(Oc3ccccc3)cc1)nn2C1CCN(CCOCCOCCOc2ccc3c(c2)CN(C2CCC(=O)NC2=O)C3=O)CC1` (stereo not drawn) (2.5 µM): 0. Consider `O=[N+]([O-])c1ccc(Nc2nc(N3CCOCC3)nc(N3CCOCC3)n2)cc1` (10 µM), for which the “number of time points” value was determined as 0. Take `C[C@H](Nc1ncnc2[nH]cnc12)c1cc2ccc(F)cc2nc1-c1ccccn1` (10 µM): the “number of time points” value was 0. On to `CCc1cccc(CC)c1NC(=O)N1Cc2[nH]nc(NC(=O)c3ccc(N4CCN(C)CC4)cc3)c2C1` (2.5 µM), for which the “number of time points” value was 0.

In the case of `CCc1cncnc1N1CCN(Cc2nc3ccc(C(F)(F)F)cc3[nH]2)CC1` (10 µM), the “number of time points” value turned out to be 0. With `COc1cc(-c2cn[nH]c2)ccc1C(=O)Nc1ccc2c(c1)CCNCC2` (10 µM), the “number of time points” value worked out at 0. Turning to `Cn1cc2cc(C(F)(F)c3nnc4ccc(-c5cnn(C6CC6)c5)nn34)c(F)cc2n1` [Bozitinib] (10 µM), the “number of time points” value stood at 0.

On to `O=Nc1c2[nH]c3ccccc3nc-2c2ccccc12` [IQ-1S (free acid)] (2.5 µM), for which the “number of time points” value amounted to 0. With `CCN(CC)c1cc2oc(=O)c(-c3nc4ccccc4o3)cc2cc1C` (2.5 µM), the “number of time points” value was 1.

As to `COc1cc(N2CCOCC2)ccc1NC(=O)c1csc(-c2cccnc2)n1` [IRAK inhibitor 6] (10 µM), the “number of time points” value was determined as 0. As to `CNc1nc(Nc2cn(C(C)(C)C#N)nc2C)ncc1C(F)(F)F` (10 µM), the “number of time points” value was determined as 0. The same measure for `COc1nn(C)cc1Nc1nccc(-c2c[nH]c3c(NC(=O)[C@@H](C)N4CCN(C)CC4)cccc23)n1` (10 µM): 0; for `N#Cc1ccnc(Nc2cc(C3CCN(C4COC4)CC3)cc(N3CCC(F)(F)C3)n2)c1` (2.5 µM): 0. For the molecule `Cc1cccc2c3c(ccc12)C(=O)C1=C(OCC1C)C3=O` (stereo not drawn) [Dihydroisotanshinone I] (2.5 µM), the “number of time points” value was determined as 0.
